Data on one molecule can be found in patent US6548290 (Harvard, dated 2003).

No constants are given. Whether binding was seen depends on the method and setting. In cells and extracts the contact can be indirect.

The experiment addresses Xcdc6 (Xenopus). Kind of experiment: co-immunoprecipitation (preliminary experiments).

B1: geminin (Xenopus; as used in the co-immunoprecipitation experiments) (other)
chain: MNTNKKQRLDMEKPTMSIKNYFVDKTNESLAPRRTLKVIQPSASGCLVGRTKEPVKNSTKRKLWNDQLTSKKAKVEVAVDPEHRENKDCSSEAYDLMVKETPTCLYWKEVAEERRKALYEALQENEKLHKEIELKDEEIARLKQENDELMELAGHVQYMANMIERLTGNAPRSLEDLKDLDLEEARFEDEADMAEARIEDETDMARPSNSDQNMDAHTV
As to B1, the binding result is recorded as “no binding”.
